Our source for the TI values is paper PMC7356157 (Microorganisms, 2020).

No end group written: not given here.

The series relates to E. coli versus hRBC. Briefly: Therapeutic index (MHC divided by MIC). The note with it: MHC divided by average MIC against ATCC E. coli strains.

In turn, RKKKMKKALQYIKLLKE-NH2 [Peptide 35409-1] had a TI above 17.5.
